Numbered stars: 1 amine (or outer) side, 2 acyl side, 3 side chain; on linkers, the order of the positions; unused ones are H or OH. Bridge positions count the residues as written; N and C are the ends. Square brackets hold non-standard residues; d marks the D form. Peptide text beside a SMILES is read from it. I, II: the chains in the order shown. Actinocin(9to1) = Cc1c2oc3c(C)ccc(C(=O)[*:1])c3nc-2c(C(=O)[*:2])c(N)c1=O; NMeV = CN[C@H](C(=O)O)C(C)C; Sar = CNCC(=O)O
Each molecule was assayed on P388 lymphocytic leukemia (assay: In vivo P388 assay). Settings: optimal nontoxic dose; ip on days 1,5,9; 10^6 P388 cells ip in CDF1 male mice.
Method: ^c 10^6 P388 cells implanted intraperitoneally on day 0 into a
group of 7 CDF1 male mice. Drugs were administered, also ip, in 10%
Me2 SO--saline on days 1,5,9. Test solutions were kept at 0-4.degree
C., protected from light.
These analogues were tested for antitumor activity against P388 lymphocytic leukemia in male CDF1 hybrid mice (Table 6). The tumor was implanted intraperitoneally (ip) with 10^6 cells. The drugs were administered once daily on days 1, 5, 9 beginning 1 day after implantation.

Compound | Optimum Dose [mg/kg]
Cc1c2oc3c(C)ccc(C(=O)N[C@@H]4C(=O)N[C@H](C(C)C)C(=O)N5CCC[C@H]5C(=O)N(C)CC(=O)N(C)[C@@H](C(C)C)C(=O)O[C@@H]4C)c3nc-2c(C(=O)N[C@@H]2C(=O)N[C@H](C(C)C)C(=O)N3CCC[C@H]3C(=O)N(C)CC(=O)N(C)[C@@H](C(C)C)C(=O)O[C@@H]2C)c(N)c1=O [Compound 1a, Actinomycin D, reference compound] (I: T[dV]P[Sar][NMeV] / II: T[dV]P[Sar][NMeV]; ester I:1-I:C, II:1-II:C; linker I:N-II:N via Actinocin(9to1)) | 0.125
Cc1ccc(C(=O)N[C@@H]2C(=O)N[C@H](C(C)C)C(=O)N3CCC[C@H]3C(=O)N(C)CC(=O)N(C)[C@@H](C(C)C)C(=O)O[C@@H]2C)c2c1Oc1c(c(C(=O)N[C@@H]3C(=O)N[C@H](C(C)C)C(=O)N4CCC[C@H]4C(=O)N(C)CC(=O)N(C)[C@@H](C(C)C)C(=O)O[C@@H]3C)c3nc(-c4ccccc4)c(=O)oc3c1C)N2 [Compound 2b] | 0.6
Cc1ccc(C(=O)N[C@@H]2C(=O)N[C@H](C(C)C)C(=O)N3CCC[C@H]3C(=O)N(C)CC(=O)N(C)[C@@H](C(C)C)C(=O)O[C@@H]2C)c2c1Oc1c(c(C(=O)N[C@@H]3C(=O)N[C@H](C(C)C)C(=O)N4CCC[C@H]4C(=O)N(C)CC(=O)N(C)[C@@H](C(C)C)C(=O)O[C@@H]3C)c3nc(-c4ccccc4Cl)c(=O)oc3c1C)N2 [Compound 2c] | 1.2
Cc1ccc(C(=O)N[C@@H]2C(=O)N[C@H](C(C)C)C(=O)N3CCC[C@H]3C(=O)N(C)CC(=O)N(C)[C@@H](C(C)C)C(=O)O[C@@H]2C)c2c1Oc1c(c(C(=O)N[C@@H]3C(=O)N[C@H](C(C)C)C(=O)N4CCC[C@H]4C(=O)N(C)CC(=O)N(C)[C@@H](C(C)C)C(=O)O[C@@H]3C)c3nc(-c4cccc(Cl)c4)c(=O)oc3c1C)N2 [Compound 2d] | 0.6
Cc1ccc(C(=O)N[C@@H]2C(=O)N[C@H](C(C)C)C(=O)N3CCC[C@H]3C(=O)N(C)CC(=O)N(C)[C@@H](C(C)C)C(=O)O[C@@H]2C)c2c1Oc1c(c(C(=O)N[C@@H]3C(=O)N[C@H](C(C)C)C(=O)N4CCC[C@H]4C(=O)N(C)CC(=O)N(C)[C@@H](C(C)C)C(=O)O[C@@H]3C)c3nc(-c4ccc(Cl)cc4)c(=O)oc3c1C)N2 [Compound 2e] | 0.6
Cc1ccc(C(=O)N[C@@H]2C(=O)N[C@H](C(C)C)C(=O)N3CCC[C@H]3C(=O)N(C)CC(=O)N(C)[C@@H](C(C)C)C(=O)O[C@@H]2C)c2c1Oc1c(c(C(=O)N[C@@H]3C(=O)N[C@H](C(C)C)C(=O)N4CCC[C@H]4C(=O)N(C)CC(=O)N(C)[C@@H](C(C)C)C(=O)O[C@@H]3C)c3nc(-c4ccc(Cl)cc4Cl)c(=O)oc3c1C)N2 [Compound 2f] | 1.2
Cc1ccc(C(=O)N[C@@H]2C(=O)N[C@H](C(C)C)C(=O)N3CCC[C@H]3C(=O)N(C)CC(=O)N(C)[C@@H](C(C)C)C(=O)O[C@@H]2C)c2c1Oc1c(c(C(=O)N[C@@H]3C(=O)N[C@H](C(C)C)C(=O)N4CCC[C@H]4C(=O)N(C)CC(=O)N(C)[C@@H](C(C)C)C(=O)O[C@@H]3C)c3nc(-c4c(F)c(F)c(F)c(F)c4F)c(=O)oc3c1C)N2 [Compound 2g] | 1.8
CCCCCCc1nc2c(C(=O)N[C@@H]3C(=O)N[C@H](C(C)C)C(=O)N4CCC[C@H]4C(=O)N(C)CC(=O)N(C)[C@@H](C(C)C)C(=O)O[C@@H]3C)c3c(c(C)c2oc1=O)Oc1c(C)ccc(C(=O)N[C@@H]2C(=O)N[C@H](C(C)C)C(=O)N4CCC[C@H]4C(=O)N(C)CC(=O)N(C)[C@@H](C(C)C)C(=O)O[C@@H]2C)c1N3 [Compound 2h] | 1.2
Cc1ccc(C(=O)N[C@@H]2C(=O)N[C@H](C(C)C)C(=O)N3CCC[C@H]3C(=O)N(C)CC(=O)N(C)[C@@H](C(C)C)C(=O)O[C@@H]2C)c2c1Oc1c(c(C(=O)N[C@@H]3C(=O)N[C@H](C(C)C)C(=O)N4CCC[C@H]4C(=O)N(C)CC(=O)N(C)[C@@H](C(C)C)C(=O)O[C@@H]3C)c3nc(-c4ccc5ccccc5c4)c(=O)oc3c1C)N2 [Compound 2i, 3-(2-NAPHTHYL)-10,12-DIMETHYL-2H,6H-OXAZINO[3,2-b]PHENOXAZINE-2-ONE 5,7-BIS[CARBONYL-L-THREONYL-D-VALYL-L-PROLYLSARCOSYL-L-N-METHYLVALINE-(THR EONINE HYDROXYL)] LACTONE] | 1.2
Cc1nc2c(C(=O)N[C@@H]3C(=O)N[C@H](C(C)C)C(=O)N4CCC[C@H]4C(=O)N(C)CC(=O)N(C)[C@@H](C(C)C)C(=O)O[C@@H]3C)c3c(c(C)c2o1)Oc1c(C)ccc(C(=O)N[C@@H]2C(=O)N[C@H](C(C)C)C(=O)N4CCC[C@H]4C(=O)N(C)CC(=O)N(C)[C@@H](C(C)C)C(=O)O[C@@H]2C)c1N3 [Compound 3a] | 1.2
Cc1ccc(C(=O)N[C@@H]2C(=O)N[C@H](C(C)C)C(=O)N3CCC[C@H]3C(=O)N(C)CC(=O)N(C)[C@@H](C(C)C)C(=O)O[C@@H]2C)c2c1Oc1c(c(C(=O)N[C@@H]3C(=O)N[C@H](C(C)C)C(=O)N4CCC[C@H]4C(=O)N(C)CC(=O)N(C)[C@@H](C(C)C)C(=O)O[C@@H]3C)c3nc(-c4ccccc4)oc3c1C)N2 [Compound 3b, 2-PHENYL-9,11-DIMETHYL-5H-OXAZOLO[4,5-b]PHENOXAZINE 4,6-BIS[CARBONYL-L-THREONYL-D-VALYL-L-PROLYLSARCOSYL-L-N-METHYL-VALINE-(TH REONINE HYDROXYL)] LACTONE] | 0.9
Cc1ccc(C(=O)N[C@@H]2C(=O)N[C@H](C(C)C)C(=O)N3CCC[C@H]3C(=O)N(C)CC(=O)N(C)[C@@H](C(C)C)C(=O)O[C@@H]2C)c2c1Oc1c(c(C(=O)N[C@@H]3C(=O)N[C@H](C(C)C)C(=O)N4CCC[C@H]4C(=O)N(C)CC(=O)N(C)[C@@H](C(C)C)C(=O)O[C@@H]3C)c3nc(-c4c(F)c(F)c(F)c(F)c4F)oc3c1C)N2 [Compound 3c] | 1.8
Cc1c2oc3c(C)c4oc(-c5ccccc5)nc4c(C(=O)N[C@@H]4C(=O)N[C@H](C(C)C)C(=O)N5CCC[C@H]5C(=O)N(C)CC(=O)N(C)[C@@H](C(C)C)C(=O)O[C@@H]4C)c3nc-2c(C(=O)N[C@@H]2C(=O)N[C@H](C(C)C)C(=O)N3CCC[C@H]3C(=O)N(C)CC(=O)N(C)[C@@H](C(C)C)C(=O)O[C@@H]2C)cc1=O [Compound 4b, 2-PHENYL-9,11-DIMETHYL-8-OXO-8H-OXAZOLO[4,5-b]PHENOXAZINE 4,6-BIS[CARBONYL-L-THREONYL-D-VALYL-L-PROLYLSARCOSYL-L-N-METHYLVALINE-(THR EONINE HYDROXYL)] LACTONE] | 0.75
Cc1c2oc3c(C)c4oc(-c5c(F)c(F)c(F)c(F)c5F)nc4c(C(=O)N[C@@H]4C(=O)N[C@H](C(C)C)C(=O)N5CCC[C@H]5C(=O)N(C)CC(=O)N(C)[C@@H](C(C)C)C(=O)O[C@@H]4C)c3nc-2c(C(=O)N[C@@H]2C(=O)N[C@H](C(C)C)C(=O)N3CCC[C@H]3C(=O)N(C)CC(=O)N(C)[C@@H](C(C)C)C(=O)O[C@@H]2C)cc1=O [Compound 4c] | 0.9
